## Primary screen of a compound library

Sequences of proteins named here, by UniProt entry; tags and fusion partners are left off.
UniProt E9BF75, entry or part of it: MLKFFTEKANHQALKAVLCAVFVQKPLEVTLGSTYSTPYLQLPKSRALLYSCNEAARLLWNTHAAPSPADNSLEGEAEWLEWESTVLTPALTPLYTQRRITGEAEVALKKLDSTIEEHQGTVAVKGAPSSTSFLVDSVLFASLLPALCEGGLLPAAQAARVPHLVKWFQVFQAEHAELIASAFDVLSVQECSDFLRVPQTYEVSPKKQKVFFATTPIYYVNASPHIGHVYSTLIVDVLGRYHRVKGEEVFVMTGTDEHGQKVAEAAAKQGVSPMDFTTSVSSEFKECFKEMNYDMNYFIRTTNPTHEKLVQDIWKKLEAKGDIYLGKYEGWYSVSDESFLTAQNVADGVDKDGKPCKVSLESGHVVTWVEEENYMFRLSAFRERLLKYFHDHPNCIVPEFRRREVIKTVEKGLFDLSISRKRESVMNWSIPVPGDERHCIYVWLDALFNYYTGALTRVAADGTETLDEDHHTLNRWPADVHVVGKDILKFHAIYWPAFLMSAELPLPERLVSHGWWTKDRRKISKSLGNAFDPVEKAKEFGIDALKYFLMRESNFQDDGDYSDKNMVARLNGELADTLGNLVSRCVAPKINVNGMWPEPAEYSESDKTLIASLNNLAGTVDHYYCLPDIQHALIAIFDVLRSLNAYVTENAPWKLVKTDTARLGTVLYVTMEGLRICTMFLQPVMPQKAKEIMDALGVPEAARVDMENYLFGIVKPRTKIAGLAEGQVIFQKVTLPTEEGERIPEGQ

Measurements from “University of Dundee, Small-Polar-MMV Screening Library” (2021), ChEMBL document CHEMBL3988442.

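Methionyl-tRNA synthetase (putative), Leishmania donovani (UniProt E9BF75). Primary screen of methionyl-tRNA synthetase; the read-out is not stated. The test concentration is not given. The values are filed as inhibition. Of about 68,000 compounds tested this way, about 24 (0.035%) reached 50% or more in at least one test.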

All values are in %.
How 0% and 100% were set is not recorded. Most values in the screen are low, and negative values occur.
The compounds are a random part of those screened.

With Cc1cc(Br)oc1C(=O)N1CCN(CC(N)=O)CC1 the screen gave 15.72%. Cc1ccc(C(=O)N2C[C@@H]3C[C@@H](c4nnc(C5CC5)o4)O[C@@H]3C2)s1 read 11.64%. Result for CCOC(C(=O)N1CCn2c(C)nnc2C1)c1ccccc1 (configuration not stated) was 5.645%. COc1ccc(OCc2nc(C(=O)N3CCCNC(=O)C3)co2)cc1 gave 14.44%. CC(C)Oc1ccccc1C(=O)NC1CC(=O)N(CC(F)(F)F)C1 (configuration not stated) read 8.871%. Result for CC(NC(=O)NCCCN1CCCCCC1)c1nncn1C (configuration not stated) was 14.92%. c1nc(CCNc2nc(C3CC3)nc3c2CCNCC3)c[nH]1 read 7.216%.

With COc1ccccc1C1(O)CCCN(C(=O)c2cnc(SC)nc2)C1 (configuration not stated) the screen gave 15.22%. Cc1cc(CN2C[C@@H]3CN(C(=O)c4ccsc4)CCO[C@@H]3C2)no1 read 10.96%. CC(Cn1ccnc1)NC(=O)N1CCN(Cc2ccco2)CC1 (configuration not stated) read 9.29%. Cc1cc(NC(=O)N(C)C2CCCN(c3ccccc3)C2=O)n(C)n1 (configuration not stated) gave 12.32%. NC(=O)C1CCCN(c2ccc(CNC(=O)c3csnn3)cc2)C1 (configuration not stated) gave 19.77%. For CN(Cc1cccnc1)CC1CCCN1c1cccnn1 (configuration not stated) the result was 4.167%. CC(C(=O)N1CCCN(c2ccccc2C#N)CC1)n1cccn1 (configuration not stated) read 10.89%.

COCCc1noc(CNC2CCSC2)n1 (configuration not stated) read 6.667%. For CC(=O)N1CCCC1c1nnn2cc(NCc3cccnc3)ccc12 (configuration not stated) the result was 12.06%. For CCn1c(N)nc2cc(C(=O)N(C)Cc3cc(C(C)(C)C)n[nH]3)cnc21 the result was 10.45%. With Cc1ccc2nc(C)cc(C(=O)NCc3csc(N(C)C)n3)c2c1 the screen gave 13.87%. CCOC(C)C(=O)Nc1cc(S(=O)(=O)NC2CC2)ccc1F (configuration not stated) read -3.064%. For CNC(=O)NC(=O)CCN1CCOC(c2ccc(Br)cc2)C1 (configuration not stated) the result was 8.696%. For O=C(CN1CCc2cncnc2C1)NCCOc1cccc(Cl)c1 the result was 22.29%.

CCOC(=O)CNC(=O)NCc1cccn1Cc1cccc(C)c1 gave 12.83%. For C/C=C(\C)CN1C[C@@H](NC(=O)c2ccc(F)c(F)c2)C[C@H]1C(=O)NCC the result was 17.25%. CN(Cc1cscn1)C(=O)C(c1ccccc1)N1CCSCC1 (configuration not stated) read 14.32%. CCN1CCN(c2ncnc3c2CCN(C(=O)C2CC2)C3)CC1 read 8.815%. With CC(C)c1ccc(-n2cc(O)c(C(=O)N3CCC(C(N)=O)CC3)n2)cc1 the screen gave 13.35%. Result for CCN1CCN(C(=O)NCCOc2ccc3c(c2)OCO3)CC1 was 8.711%. With COc1ccc(C(=O)N2C[C@@H](O)[C@H](NCc3cnc(C)cn3)C2)cc1 the screen gave 7.619%.

CC(C)(CN)NS(=O)(=O)c1cccc(F)c1F gave 13.09%. CCSc1ccccc1C(=O)NCCN1CCC(c2cccs2)CC1 read 17.46%. Result for O=S(=O)(Cc1ccccc1Cl)CC(O)CO (configuration not stated) was 12.13%. Result for COCCNC(=O)c1cc(S(=O)(=O)N2CCCCCC2)cs1 was 6.78%. For CCN(Cc1nc(C)no1)C(=O)C1CC(=O)N(Cc2cccnc2)C1 (configuration not stated) the result was 12.3%. Result for O=C1C[C@H]2[C@@H](CCN2C(=O)c2ccc[nH]2)N1CCN1CCCC1 was 16.25%. NC(=O)c1ccc(CNC(=O)Nc2cn[nH]c2)cc1 read 11.17%.

Result for O=C(CCc1ccncc1)NCCOc1ncc(Cl)cc1Cl was 11.04%. With CN1CCC(c2cccc(-c3ccc(C(=O)O)cc3)n2)CC1 the screen gave 16.46%. For CC1(C)CC(=O)c2cnc3nc(N4CCOCC4)nc(O)c3c2C1 the result was 12.87%. With CCN(Cc1cccc2c1OCO2)CC1CCCO1 (configuration not stated) the screen gave 15.46%. CCc1ncnc2c1CCN(C(=O)N1CCCC1)CC2 read 7.95%. Result for Cc1ccc(S(=O)(=O)c2ncccc2CN2CCCC2)cc1 was 15.45%. For Oc1cccc2ccc(CN3CCC4(CCNCC4)C3)nc12 the result was 10.07%.

Result for Cc1ccc(Br)c(S(=O)(=O)NCc2cnn(C)c2)c1 was 15.66%. For CC(C)CN1CCC(c2nc3ccc(NC(C)C)cn3n2)CC1 the result was 19.31%. Cc1ccc(C(C(=O)NCCN2CCCCCC2)N(C)C)cc1 (configuration not stated) gave 13.19%. CSC(C)C(=O)N1CCN(CC(C)(C)O)CC1 (configuration not stated) gave 10.87%. For Cc1cnc(CNc2ccccc2CN(C)C(=O)c2cccs2)o1 the result was -0.2688%. With O=C(c1cccnc1-n1cccn1)N1CCN(CC2CC2)CC1 the screen gave 15.58%. Result for O=C(CC1CC2(CCNCC2)c2ccccc21)NCC1CC1 (configuration not stated) was 3.519%.

COc1ccc(C(C(=O)O)N(C)Cc2ccon2)cc1Cl (configuration not stated) gave 11.08%.

For reference, 6 entries once more:

{"compound": "O=C(CCc1ccncc1)NCCOc1ncc(Cl)cc1Cl", "Inhibition": 11.04}
{"compound": "CC(C)CN1CCC(c2nc3ccc(NC(C)C)cn3n2)CC1", "Inhibition": 19.31}
{"compound": "Cc1cc(NC(=O)N(C)C2CCCN(c3ccccc3)C2=O)n(C)n1", "stereo": "configuration not stated", "Inhibition": 12.32}
{"compound": "NC(=O)C1CCCN(c2ccc(CNC(=O)c3csnn3)cc2)C1", "stereo": "configuration not stated", "Inhibition": 19.77}
{"compound": "O=C(c1cccnc1-n1cccn1)N1CCN(CC2CC2)CC1", "Inhibition": 15.58}
{"compound": "COc1ccc(C(C(=O)O)N(C)Cc2ccon2)cc1Cl", "stereo": "configuration not stated", "Inhibition": 11.08}